Our source for the binding values is article PMC5745004.

Chains of the proteins cited; added tags and fusions are not shown. Lines headed by an entry give the natural chain unless they say otherwise; changes in a name come on top.
UniProt P23321: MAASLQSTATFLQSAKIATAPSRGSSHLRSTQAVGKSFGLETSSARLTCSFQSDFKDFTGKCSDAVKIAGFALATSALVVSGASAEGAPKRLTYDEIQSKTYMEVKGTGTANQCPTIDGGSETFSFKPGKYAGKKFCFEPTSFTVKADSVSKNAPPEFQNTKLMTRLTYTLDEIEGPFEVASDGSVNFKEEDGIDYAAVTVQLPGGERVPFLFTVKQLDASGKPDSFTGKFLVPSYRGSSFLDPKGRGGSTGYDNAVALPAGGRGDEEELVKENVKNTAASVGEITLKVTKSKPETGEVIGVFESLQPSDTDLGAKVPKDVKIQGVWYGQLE

No constants are given. Whether binding was seen depends on the method and setting. Binding seen in cells or lysates may run through a third protein. Binding can be weak; no strength is given.

In this test the target is PsbO1GFP (PsbO1^1-332GFP, full-length PsbO1 fused to GFP) expressed in Arabidopsis (Arabidopsis) (UniProt P23321). The test is described as follows: co-IP; GFP-trap resin with lysate of seven-day-old Arabidopsis seedlings, 4°C 1 h, 25 mM Tris-HCl pH 7.5, 150 mM NaCl, 0.5% NP40; washes with 0.1% NP40; immunoblotting.

B1: HSP90C, endogenous in Arabidopsis seedlings (protein, UniProt Q9SIF2 61-780)
chain: CDAAVAEKETTEEGSGEKFEYQAEVSRLLDLIVHSLYSHKEVFLRELVSNASDALDKLRFLSVTEPSLLGDGGDLEIRIKPDPDNGTITITDTGIGMTKEELIDCLGTIAQSGTSKFLKALKENKDLGADNGLIGQFGVGFYSAFLVAEKVVVSTKSPKSDKQYVWESVADSSSYLIREETDPDNILRRGTQITLYLREDDKYEFAESTRIKNLVKNYSQFVGFPIYTWQEKSRTIEVEEDEPVKEGEEGEPKKKKTTKTEKYWDWELANETKPLWMRNSKEVEKGEYNEFYKKAFNEFLDPLAHTHFTTEGEVEFRSILYIPGMGPLNNEDVTNPKTKNIRLYVKRVFISDDFDGELFPRYLSFVKGVVDSDDLPLNVSREILQESRIVRIMRKRLIRKTFDMIQEISESENKEDYKKFWENFGRFLKLGCIEDTGNHKRITPLLRFFSSKNEEELTSLDDYIENMGENQKAIYYLATDSLKSAKSAPFLEKLIQKDIEVLYLVEPIDEVAIQNLQTYKEKKFVDISKEDLELGDEDEVKDREAKQEFNLLCDWIKQQLGDKVAKVQVSNRLSSSPCVLVSGKFGWSANMERLMKAQALGDTSSLEFMRGRRILEINPDHPIIKDLNAACKNAPESTEATRVVDLLYDTAIISSGFTPDSPAELGNKIYEMMAMAVGGRWGRVEEEEESSTVNEGDDKSGETEVVEPSEVRAESDPWQD
On to B1, for which the binding entry is given as “binds”.
